PMC6799845
No signal at the amounts used counts as a negative. For some assays here: For at least one entry, the source does not settle the construct or the ends of the probe.

By UniProt entry, the sequences of proteins in these tests, tags left out. Residues count along the entry.
UniProt P02769, 25-607: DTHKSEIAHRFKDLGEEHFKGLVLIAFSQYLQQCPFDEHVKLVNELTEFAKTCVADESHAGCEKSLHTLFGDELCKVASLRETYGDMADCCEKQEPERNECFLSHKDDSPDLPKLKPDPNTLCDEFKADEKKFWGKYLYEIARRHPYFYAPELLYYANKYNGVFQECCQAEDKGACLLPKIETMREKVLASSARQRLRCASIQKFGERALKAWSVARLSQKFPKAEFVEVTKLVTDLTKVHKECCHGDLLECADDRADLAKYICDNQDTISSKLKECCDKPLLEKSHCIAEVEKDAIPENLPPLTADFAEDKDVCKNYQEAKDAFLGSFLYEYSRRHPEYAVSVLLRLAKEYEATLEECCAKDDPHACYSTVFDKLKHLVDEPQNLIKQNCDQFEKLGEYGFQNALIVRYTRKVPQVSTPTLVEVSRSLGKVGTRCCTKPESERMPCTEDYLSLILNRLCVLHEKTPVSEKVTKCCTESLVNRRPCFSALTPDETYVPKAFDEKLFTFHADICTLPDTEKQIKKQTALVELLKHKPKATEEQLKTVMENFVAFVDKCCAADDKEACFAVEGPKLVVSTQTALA

Columns and labels:
BSA = BSA (UniProt P02769); experiment: electrochemistry (on-chip bead-bound aptamer); conditions: 2 mg/mL, no significant signal (<15% of 500 pg/mL IFN-γ response); Buffer C: 100 mM Tris-HCl pH 7.4, 100 mM NaCl, 1 mM MgCl2, 5 mM KCl; room temperature (optimized conditions stated as pH 7.5, 100 mM salt); commercial protein; folded or branched DNA
CA-125 = CA-125 (UniProt Q8WXI7); experiment: electrochemistry (on-chip bead-bound aptamer); conditions: 1 mg/mL, no significant signal (<15%); Buffer C: 100 mM Tris-HCl pH 7.4, 100 mM NaCl, 1 mM MgCl2, 5 mM KCl; room temperature (optimized conditions stated as pH 7.5, 100 mM salt); commercial protein; folded or branched DNA

“GGGGTTGGTTGTGTTGGGTGTTGTGTCCAACCCC [Fc-labeled IFN-γ hairpin aptamer (MB-aptamer)]”: no binding (BSA); no binding (CA-125).
